{
  "source": "the supplement of paper PMC8728848",
  "binders": {"B1": {"name": "AT1G77380(17) (Arabidopsis thaliana), Q39134 (protein)", "chain": "MVQNHQTVLAVDMPQTGGSKYLDDDGKNKRTGSVWTASAHIITAVIGSGVLSLAWATAQLGWLAGPVVMLLFSAVTYFTSSLLAACYRSGDPISGKRNYTYMDAVRSNLGGVKVTLCGIVQYLNIFGVAIGYTIASAISMMAIKRSNCFHKSGGKDPCHMNSNPYMIAFGLVQILFSQIPDFDQLWWLSILAAVMSFTYSSAGLALGIAQVVVNGKVKGSLTGISIGAVTETQKIWRTFQALGDIAFAYSYSIILIEIQDTVKSPPSEEKTMKKATLVSVSVTTMFYMLCGCMGYAAFGDLSPGNLLTGFGFYNPYWLLDIANAAIVIHLIGAYQVYCQPLFAFIEKQASIQFPDSEFIAKDIKIPIPGFKPLRLNVFRLIWRTVFVIITTVISMLLPFFNDVVGLLGALGFWPLTVYFPVEMYIAQKKIPRWSTRWVCLQVFSLGCLVVSIAAAAGSIAGVLLDLKSYKPFRSEY"}},
  "assay_in_all_cases": "glycan array binding signal (z-score within array); higher = stronger binding",
  "conditions_in_all_cases": "glycan notation: IUPAC condensed, linker removed",
  "key": {"[1]": {"target": "Fuc(a1-2)[Gal(a1-3)]Gal(b1-4)GlcNAc(b1-2)Man(a1-3)[Fuc(a1-2)[Gal(a1-3)]Gal(b1-4)GlcNAc(b1-2)Man(a1-6)]Man(b1-4)GlcNAc(b1-4)GlcNAc", "outline": "(§1)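 From the Consortium for Functional Glycomics database, 3228 arrays were curated, keeping only those whose protein sequence was available. Binding is given as a within-array Z-score averaged across arrays sharing a protein sequence and across linkers. Negative Z-scores can be read as non-binding.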"}, "[2]": {"target": "Fuc(a1-2)[Gal(a1-3)]Gal(b1-4)GlcNAc(b1-2)Man(a1-3)[Fuc(a1-2)[Gal(a1-3)]Gal(b1-4)GlcNAc(b1-2)Man(a1-6)]Man(b1-4)GlcNAc(b1-4)[Fuc(a1-6)]GlcNAc", "outline": "as §1"}, "[3]": {"target": "Fuc(a1-2)[Gal(a1-3)]Gal(b1-4)GlcNAc(b1-3)GalNAc", "outline": "as §1"}, "[4]": {"target": "Fuc(a1-2)[Gal(a1-3)]Gal(b1-4)GlcNAc(b1-3)[Fuc(a1-2)[Gal(a1-3)]Gal(b1-4)GlcNAc(b1-6)]GalNAc", "outline": "as §1"}, "[5]": {"target": "Fuc(a1-2)[Gal(a1-3)]Gal(b1-4)GlcNAc(b1-6)GalNAc", "outline": "as §1"}, "[6]": {"target": "Fuc(a1-2)[Gal(a1-3)]Gal(b1-4)[Fuc(a1-3)]Glc", "outline": "as §1"}, "[7]": {"target": "Fuc(a1-2)[Gal(a1-3)]Gal(b1-4)[Fuc(a1-3)]GlcNAc", "outline": "as §1"}, "[8]": {"target": "Fuc(a1-2)[Gal(a1-3)]Gal(b1-4)[Fuc(a1-3)]GlcNAc(b1-3)GalNAc", "outline": "as §1"}, "[9]": {"target": "Fuc(a1-2)[Gal(a1-4)]Gal(b1-4)GlcNAc", "outline": "as §1"}, "[10]": {"target": "Fuc(a1-2)[GalNAc(a1-3)]Gal", "outline": "as §1"}, "[11]": {"target": "Fuc(a1-2)[GalNAc(a1-3)]Gal(b1-3)GalNAc(a1-3)[Fuc(a1-2)]Gal(b1-4)GlcNAc", "outline": "as §1"}, "[12]": {"target": "Fuc(a1-2)[GalNAc(a1-3)]Gal(b1-3)GalNAc(b1-3)Gal(a1-4)Gal(b1-4)Glc", "outline": "as §1"}, "[13]": {"target": "Fuc(a1-2)[GalNAc(a1-3)]Gal(b1-3)GlcNAc", "outline": "as §1"}, "[14]": {"target": "Fuc(a1-2)[GalNAc(a1-3)]Gal(b1-3)GlcNAc(b1-2)Man(a1-3)[Fuc(a1-2)[GalNAc(a1-3)]Gal(b1-3)GlcNAc(b1-2)Man(a1-6)]Man(b1-4)GlcNAc(b1-4)GlcNAc", "outline": "as §1"}, "[15]": {"target": "Fuc(a1-2)[GalNAc(a1-3)]Gal(b1-3)GlcNAc(b1-2)Man(a1-3)[Fuc(a1-2)[GalNAc(a1-3)]Gal(b1-3)GlcNAc(b1-2)Man(a1-6)]Man(b1-4)GlcNAc(b1-4)[Fuc(a1-6)]GlcNAc", "outline": "as §1"}, "[16]": {"target": "Fuc(a1-2)[GalNAc(a1-3)]Gal(b1-3)GlcNAc(b1-3)GalNAc", "outline": "as §1"}, "[17]": {"target": "Fuc(a1-2)[GalNAc(a1-3)]Gal(b1-3)GlcNAc(b1-6)GalNAc", "outline": "as §1"}, "[18]": {"target": "Fuc(a1-2)[GalNAc(a1-3)]Gal(b1-4)Glc", "outline": "as §1"}, "[19]": {"target": "Fuc(a1-2)[GalNAc(a1-3)]Gal(b1-4)GlcNAc", "outline": "as §1"}, "[20]": {"target": "Fuc(a1-2)[GalNAc(a1-3)]Gal(b1-4)GlcNAc(b1-2)Man", "outline": "as §1"}, "[21]": {"target": "Fuc(a1-2)[GalNAc(a1-3)]Gal(b1-4)GlcNAc(b1-2)Man(a1-3)[Fuc(a1-2)[GalNAc(a1-3)]Gal(b1-4)GlcNAc(b1-2)Man(a1-6)]Man(b1-4)GlcNAc(b1-4)GlcNAc", "outline": "as §1"}, "[22]": {"target": "Fuc(a1-2)[GalNAc(a1-3)]Gal(b1-4)GlcNAc(b1-2)Man(a1-3)[Fuc(a1-2)[GalNAc(a1-3)]Gal(b1-4)GlcNAc(b1-2)Man(a1-6)]Man(b1-4)GlcNAc(b1-4)[Fuc(a1-6)]GlcNAc", "outline": "as §1"}, "[23]": {"target": "Fuc(a1-2)[GalNAc(a1-3)]Gal(b1-4)GlcNAc(b1-3)Gal(b1-4)GlcNAc", "outline": "as §1"}, "[24]": {"target": "Fuc(a1-2)[GalNAc(a1-3)]Gal(b1-4)GlcNAc(b1-3)Gal(b1-4)GlcNAc(b1-3)Gal(b1-4)GlcNAc", "outline": "as §1"}, "[25]": {"target": "Fuc(a1-2)[GalNAc(a1-3)]Gal(b1-4)GlcNAc(b1-3)GalNAc", "outline": "as §1"}, "[26]": {"target": "Fuc(a1-2)[GalNAc(a1-3)]Gal(b1-4)GlcNAc(b1-3)[Fuc(a1-2)[GalNAc(a1-3)]Gal(b1-4)GlcNAc(b1-6)]GalNAc", "outline": "as §1"}, "[27]": {"target": "Fuc(a1-2)[GalNAc(a1-3)]Gal(b1-4)GlcNAc(b1-6)GalNAc", "outline": "as §1"}, "[28]": {"target": "Fuc(a1-2)[GalNAc(a1-3)]Gal(b1-4)[Fuc(a1-3)]GlcNAc", "outline": "as §1"}, "[29]": {"target": "Fuc(a1-2)[GalNAc(a1-3)]Gal(b1-4)[Fuc(a1-3)]GlcNAc(b1-3)GalNAc", "outline": "as §1"}, "[30]": {"target": "Fuc(a1-2)[GalNAc(a1-4)]Gal(b1-4)GlcNAc", "outline": "as §1"}, "[31]": {"target": "Fuc(a1-2)[GalNAc(b1-3)]Gal", "outline": "as §1"}, "Fuc(a1-3)GlcNAc": {"target": "Fuc(a1-3)GlcNAc", "outline": "as §1"}, "[32]": {"target": "Fuc(a1-3)[Gal(b1-4)]Glc6S", "outline": "as §1"}, "[33]": {"target": "Fuc(a1-3)[Gal(b1-4)]GlcNAc", "outline": "as §1"}, "[34]": {"target": "Fuc(a1-3)[Gal(b1-4)]GlcNAc(b1-2)Man", "outline": "as §1"}, "[35]": {"target": "Fuc(a1-3)[Gal(b1-4)]GlcNAc(b1-2)Man(a1-3)[Fuc(a1-3)[Gal(b1-4)]GlcNAc(b1-2)Man(a1-6)]Man(b1-4)GlcNAc(b1-4)GlcNAc", "outline": "as §1"}, "[36]": {"target": "Fuc(a1-3)[Gal(b1-4)]GlcNAc(b1-2)Man(a1-3)[Fuc(a1-3)[Gal(b1-4)]GlcNAc(b1-2)Man(a1-6)]Man(b1-4)GlcNAc(b1-4)[Fuc(a1-6)]GlcNAc", "outline": "as §1"}},
  "note": "The list shows a part of the results.",
  "data": [
    {"binder": "B1", "values": [
      {"measurement": "glycan array binding signal (z-score)", "setting": "[1]", "value": -0.646},
      {"measurement": "glycan array binding signal (z-score)", "setting": "[2]", "value": 2.16},
      {"measurement": "glycan array binding signal (z-score)", "setting": "[3]", "value": 0.897},
      {"measurement": "glycan array binding signal (z-score)", "setting": "[4]", "value": 0.458},
      {"measurement": "glycan array binding signal (z-score)", "setting": "[5]", "value": -0.886},
      {"measurement": "glycan array binding signal (z-score)", "setting": "[6]", "value": -0.822},
      {"measurement": "glycan array binding signal (z-score)", "setting": "[7]", "value": -0.151},
      {"measurement": "glycan array binding signal (z-score)", "setting": "[8]", "value": -0.782},
      {"measurement": "glycan array binding signal (z-score)", "setting": "[9]", "value": 1.72},
      {"measurement": "glycan array binding signal (z-score)", "setting": "[10]", "value": 1.61},
      {"measurement": "glycan array binding signal (z-score)", "setting": "[11]", "value": -0.36},
      {"measurement": "glycan array binding signal (z-score)", "setting": "[12]", "value": 4.03},
      {"measurement": "glycan array binding signal (z-score)", "setting": "[13]", "value": -0.205},
      {"measurement": "glycan array binding signal (z-score)", "setting": "[14]", "value": -0.86},
      {"measurement": "glycan array binding signal (z-score)", "setting": "[15]", "value": -0.716},
      {"measurement": "glycan array binding signal (z-score)", "setting": "[16]", "value": 0.081},
      {"measurement": "glycan array binding signal (z-score)", "setting": "[17]", "value": -0.395},
      {"measurement": "glycan array binding signal (z-score)", "setting": "[18]", "value": -0.659},
      {"measurement": "glycan array binding signal (z-score)", "setting": "[19]", "value": -0.628},
      {"measurement": "glycan array binding signal (z-score)", "setting": "[20]", "value": 1.32},
      {"measurement": "glycan array binding signal (z-score)", "setting": "[21]", "value": -0.981},
      {"measurement": "glycan array binding signal (z-score)", "setting": "[22]", "value": 0.816},
      {"measurement": "glycan array binding signal (z-score)", "setting": "[23]", "value": -0.481},
      {"measurement": "glycan array binding signal (z-score)", "setting": "[24]", "value": -0.453},
      {"measurement": "glycan array binding signal (z-score)", "setting": "[25]", "value": -0.519},
      {"measurement": "glycan array binding signal (z-score)", "setting": "[26]", "value": -1},
      {"measurement": "glycan array binding signal (z-score)", "setting": "[27]", "value": -0.29},
      {"measurement": "glycan array binding signal (z-score)", "setting": "[28]", "value": -0.751},
      {"measurement": "glycan array binding signal (z-score)", "setting": "[29]", "value": 2.44},
      {"measurement": "glycan array binding signal (z-score)", "setting": "[30]", "value": -0.894},
      {"measurement": "glycan array binding signal (z-score)", "setting": "[31]", "value": -0.192},
      {"measurement": "glycan array binding signal (z-score)", "setting": "Fuc(a1-3)GlcNAc", "value": 1.23},
      {"measurement": "glycan array binding signal (z-score)", "setting": "[32]", "value": -0.726},
      {"measurement": "glycan array binding signal (z-score)", "setting": "[33]", "value": -0.149},
      {"measurement": "glycan array binding signal (z-score)", "setting": "[34]", "value": -0.51},
      {"measurement": "glycan array binding signal (z-score)", "setting": "[35]", "value": 0.032},
      {"measurement": "glycan array binding signal (z-score)", "setting": "[36]", "value": -0.223}
    ]}
  ]
}
